Data reported in US20230295108A1, “ARYLTETRAHYDROPYRIDINE DERIVATIVE OR SALT THEREOF, INSECTICIDAL AGENT CONTAINING THE COMPOUND, AND METHOD OF USE THEREOF” (NIHON NOHYAKU CO., LTD., priority 2020, published 2023).
Some of these results come from one statement about several compounds together. At least one compound was matched to its structure with a doubt left.

Assays:
[1] = system: Diamondback Moth (Plutella xylostella); assay: Insecticidal test on diamondback moth, egg/seedling dip; type: in vivo; conditions: 500 ppm dispersion, Chinese cabbage seedlings with eggs dipped about 30 seconds, hatched larvae counted 6 days after treatment, 25° C.
[2] = system: Small Brown Planthopper (Laodelphax striatella); assay: Insecticidal test on small brown planthopper, rice seedling dip; type: in vivo; conditions: 500 ppm dispersion, rice seedlings dipped 30 seconds, 3rd-instar larvae, 8 days after inoculation

O=C(Nc1cccnc1F)C1=C(O)CC(c2ccc(C(F)(F)F)nc2)NC1=O (racemic) [1-222]
insecticidal efficacy (mortality rate, criteria) [1]: A (the mortality rate is 100%.) | insecticidal efficacy (corrected mortality rate, criteria) [2]: A (the mortality rate is 100%.)

O=C(Nc1cccnc1Cl)C1=C(O)CC(c2ccc(C(F)(F)F)nc2)NC1=O (racemic) [1-223]
insecticidal efficacy (mortality rate, criteria) [1]: A (the mortality rate is 100%.) | insecticidal efficacy (corrected mortality rate, criteria) [2]: A (the mortality rate is 100%.)

CCSc1ccc(C2CC(O)=C(C(=O)Nc3ccc(F)cc3)C(=O)N2)nc1 (racemic) [1-229]
insecticidal efficacy (mortality rate, criteria) [1]: A (the mortality rate is 100%.) | insecticidal efficacy (corrected mortality rate, criteria) [2]: A (the mortality rate is 100%.)

O=C(Nc1ccc(F)cc1)C1=C(O)CC(c2ccccc2F)NC1=O (stereo not shown) [1-1]
insecticidal efficacy (mortality rate, criteria) [1]: A (the mortality rate is 100%.)

O=C(Nc1ccc(F)cc1)C1=C(O)CC(c2ccc(F)cc2)NC1=O (stereo not shown) [1-4]
insecticidal efficacy (mortality rate, criteria) [1]: A (the mortality rate is 100%.)

O=C(Nc1ccccc1F)C1=C(O)CC(c2ccc(Cl)cc2)NC1=O (stereo not shown) [1-5]
insecticidal efficacy (mortality rate, criteria) [1]: A (the mortality rate is 100%.)

O=C(Nc1ccc(F)cc1)C1=C(O)CC(c2ccc(Br)cc2)NC1=O (stereo not shown) [1-6]
insecticidal efficacy (mortality rate, criteria) [1]: A (the mortality rate is 100%.) | insecticidal efficacy (corrected mortality rate, criteria) [2]: A (the mortality rate is 100%.)

CC(C)(C)c1ccc(C2CC(O)=C(C(=O)Nc3ccc(F)cc3)C(=O)N2)cc1 (stereo not shown) [1-7]
insecticidal efficacy (mortality rate, criteria) [1]: A (the mortality rate is 100%.)

O=C(NCc1cccc(F)c1)C1=C(O)CC(c2ccc(C(F)(F)F)cc2)NC1=O (stereo not shown) [1-10]
insecticidal efficacy (mortality rate, criteria) [1]: A (the mortality rate is 100%.) | insecticidal efficacy (corrected mortality rate, criteria) [2]: A (the mortality rate is 100%.)

O=C(Nc1ccccc1F)C1=C(O)CC(c2ccc(C(F)(F)F)cc2)NC1=O (stereo not shown) [1-14]
insecticidal efficacy (mortality rate, criteria) [1]: A (the mortality rate is 100%.) | insecticidal efficacy (corrected mortality rate, criteria) [2]: A (the mortality rate is 100%.)

O=C(Nc1ccccc1Cl)C1=C(O)CC(c2ccc(C(F)(F)F)cc2)NC1=O (stereo not shown) [1-15]
insecticidal efficacy (mortality rate, criteria) [1]: A (the mortality rate is 100%.)

O=C(Nc1cccc(Cl)c1)C1=C(O)CC(c2ccc(C(F)(F)F)cc2)NC1=O (stereo not shown) [1-16]
insecticidal efficacy (mortality rate, criteria) [1]: A (the mortality rate is 100%.)

N#Cc1cccc(NC(=O)C2=C(O)CC(c3ccc(C(F)(F)F)cc3)NC2=O)c1 (stereo not shown) [1-17]
insecticidal efficacy (mortality rate, criteria) [1]: A (the mortality rate is 100%.)

CSc1ccc(NC(=O)C2=C(O)CC(c3ccc(C(F)(F)F)cc3)NC2=O)cc1 (stereo not shown) [1-23]
insecticidal efficacy (mortality rate, criteria) [1]: A (the mortality rate is 100%.)

O=C(Nc1cccc(F)c1F)C1=C(O)CC(c2ccc(C(F)(F)F)cc2)NC1=O (stereo not shown) [1-25]
insecticidal efficacy (mortality rate, criteria) [1]: A (the mortality rate is 100%.)

O=C(Nc1cc(F)ccc1F)C1=C(O)CC(c2ccc(C(F)(F)F)cc2)NC1=O (stereo not shown) [1-27]
insecticidal efficacy (mortality rate, criteria) [1]: A (the mortality rate is 100%.)

O=C(Nc1c(F)cccc1F)C1=C(O)CC(c2ccc(C(F)(F)F)cc2)NC1=O (stereo not shown) [1-28]
insecticidal efficacy (mortality rate, criteria) [1]: A (the mortality rate is 100%.)

O=C(Nc1cc(F)cc(F)c1)C1=C(O)CC(c2ccc(C(F)(F)F)cc2)NC1=O (stereo not shown) [1-30]
insecticidal efficacy (mortality rate, criteria) [1]: A (the mortality rate is 100%.) | insecticidal efficacy (corrected mortality rate, criteria) [2]: A (the mortality rate is 100%.)

Cc1cc(C#N)ccc1NC(=O)C1=C(O)CC(c2ccc(C(F)(F)F)cc2)NC1=O (stereo not shown) [1-33]
insecticidal efficacy (mortality rate, criteria) [1]: A (the mortality rate is 100%.)

N#Cc1cc(NC(=O)C2=C(O)CC(c3ccc(C(F)(F)F)cc3)NC2=O)ccc1F (stereo not shown) [1-36]
insecticidal efficacy (mortality rate, criteria) [1]: A (the mortality rate is 100%.)

O=C(Nc1ccc(F)c(F)c1F)C1=C(O)CC(c2ccc(C(F)(F)F)cc2)NC1=O (stereo not shown) [1-38]
insecticidal efficacy (mortality rate, criteria) [1]: A (the mortality rate is 100%.)

O=C(Nc1cc(F)c(F)cc1F)C1=C(O)CC(c2ccc(C(F)(F)F)cc2)NC1=O (stereo not shown) [1-39]
insecticidal efficacy (mortality rate, criteria) [1]: A (the mortality rate is 100%.) | insecticidal efficacy (corrected mortality rate, criteria) [2]: A (the mortality rate is 100%.)

O=C(Nc1ccc(F)cc1)C1=C(O)CC(c2ccc3c(c2)OC(F)(F)O3)NC1=O (stereo not shown) [1-71]
insecticidal efficacy (mortality rate, criteria) [1]: A (the mortality rate is 100%.)

O=C(Nc1ccc(F)cc1)C1=C(O)CC(c2ccc(I)s2)NC1=O (stereo not shown) [1-73]
insecticidal efficacy (mortality rate, criteria) [1]: A (the mortality rate is 100%.)

O=C(Nc1ccc(F)cc1)C1=C(O)CC(c2cccnc2)NC1=O (stereo not shown) [1-85]
insecticidal efficacy (mortality rate, criteria) [1]: A (the mortality rate is 100%.) | insecticidal efficacy (corrected mortality rate, criteria) [2]: A (the mortality rate is 100%.)

O=C(Nc1ccc(F)cc1)C1=C(O)CC(c2ccncc2)NC1=O (stereo not shown) [1-86]
insecticidal efficacy (mortality rate, criteria) [1]: A (the mortality rate is 100%.)

CCNC(=O)C1=C(O)CC(c2ccc(C(F)(F)F)nc2)NC1=O (stereo not shown) [1-98]
insecticidal efficacy (mortality rate, criteria) [1]: A (the mortality rate is 100%.) | insecticidal efficacy (corrected mortality rate, criteria) [2]: A (the mortality rate is 100%.)

CSCCNC(=O)C1=C(O)CC(c2ccc(C(F)(F)F)nc2)NC1=O (stereo not shown) [1-110]
insecticidal efficacy (mortality rate, criteria) [1]: A (the mortality rate is 100%.)

N#CCNC(=O)C1=C(O)CC(c2ccc(C(F)(F)F)nc2)NC1=O (stereo not shown) [1-112]
insecticidal efficacy (corrected mortality rate, criteria) [2]: A (the mortality rate is 100%.)

O=C(NC1=NCCO1)C1=C(O)CC(c2ccc(C(F)(F)F)nc2)NC1=O (stereo not shown) [1-121]
insecticidal efficacy (corrected mortality rate, criteria) [2]: A (the mortality rate is 100%.)

O=C(Nc1ccc(C(=O)O)cc1)C1=C(O)CC(c2ccc(C(F)(F)F)nc2)NC1=O (stereo not shown) [1-133]
insecticidal efficacy (mortality rate, criteria) [1]: A (the mortality rate is 100%.)

O=C(Nc1cc(Cl)cc(Cl)c1)C1=C(O)CC(c2ccc(C(F)(F)F)nc2)NC1=O (stereo not shown) [1-137]
insecticidal efficacy (mortality rate, criteria) [1]: A (the mortality rate is 100%.)

O=C(Nc1ncco1)C1=C(O)CC(c2ccc(C(F)(F)F)nc2)NC1=O (stereo not shown) [1-143]
insecticidal efficacy (corrected mortality rate, criteria) [2]: A (the mortality rate is 100%.)

O=C(Nc1ccc(F)cc1)C1=C(O)CC(c2ccnc(Br)c2)NC1=O (stereo not shown) [1-198]
insecticidal efficacy (mortality rate, criteria) [1]: A (the mortality rate is 100%.)

O=C(Nc1ccc(F)cc1)C1=C(O)CC(c2cccs2)NC1=O (stereo not shown) [1-211]
insecticidal efficacy (mortality rate, criteria) [1]: A (the mortality rate is 100%.)

CN1C(=O)C(C(=O)Nc2ccc(F)cc2)=C(O)CC1c1ccc(C(F)(F)F)cc1 (stereo not shown) [2-1]
insecticidal efficacy (mortality rate, criteria) [1]: A (the mortality rate is 100%.)

CCN1C(=O)C(C(=O)Nc2ccc(F)cc2)=C(O)CC1c1ccc(C(F)(F)F)cc1 (stereo not shown) [2-2]
insecticidal efficacy (mortality rate, criteria) [1]: A (the mortality rate is 100%.)

N#CCN1C(=O)C(C(=O)Nc2ccc(F)cc2)=C(O)CC1c1ccc(C(F)(F)F)cc1 (stereo not shown) [2-6]
insecticidal efficacy (mortality rate, criteria) [1]: A (the mortality rate is 100%.)

N#CCCN1C(=O)C(C(=O)Nc2ccc(F)cc2)=C(O)CC1c1ccc(C(F)(F)F)cc1 (stereo not shown) [2-7]
insecticidal efficacy (mortality rate, criteria) [1]: A (the mortality rate is 100%.)

COCCN1C(=O)C(C(=O)Nc2ccc(F)cc2)=C(O)CC1c1ccc(C(F)(F)F)cc1 (stereo not shown) [2-8]
insecticidal efficacy (mortality rate, criteria) [1]: A (the mortality rate is 100%.)

CN(C(=O)C1=C(O)CC(c2ccc(C(F)(F)F)cc2)NC1=O)c1ccc(F)cc1 (stereo not shown) [2-18]
insecticidal efficacy (mortality rate, criteria) [1]: A (the mortality rate is 100%.)

CC(C)(C)OC(=O)N1C(=O)C(C(=O)Nc2ccc(F)cc2)=C(O)CC1c1ccc(C(F)(F)F)cc1 (stereo not shown) [2-22]
insecticidal efficacy (mortality rate, criteria) [1]: A (the mortality rate is 100%.)
